# Test results taken from PubChem BioAssay AID2551 (National Center for Advancing Translational Sciences (NCATS), 2010).
# Sequences of proteins named here, by UniProt entry; tags and fusion partners are left off. A change or cut given only in a name is not applied to a line headed by its entry.
# UniProt P51450: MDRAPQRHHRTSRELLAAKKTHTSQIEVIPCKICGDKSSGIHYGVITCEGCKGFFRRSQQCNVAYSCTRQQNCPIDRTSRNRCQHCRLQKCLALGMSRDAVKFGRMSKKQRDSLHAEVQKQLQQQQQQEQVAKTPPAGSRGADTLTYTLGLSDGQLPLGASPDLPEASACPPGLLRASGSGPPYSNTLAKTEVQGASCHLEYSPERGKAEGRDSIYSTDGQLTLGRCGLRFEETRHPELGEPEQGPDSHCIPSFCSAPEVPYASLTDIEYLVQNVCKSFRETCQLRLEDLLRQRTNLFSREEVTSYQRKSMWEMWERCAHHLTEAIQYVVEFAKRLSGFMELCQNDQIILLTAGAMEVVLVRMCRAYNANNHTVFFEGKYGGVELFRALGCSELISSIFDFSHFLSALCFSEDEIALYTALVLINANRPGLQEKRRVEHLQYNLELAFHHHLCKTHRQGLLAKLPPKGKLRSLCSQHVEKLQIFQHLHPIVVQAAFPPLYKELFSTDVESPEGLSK
# About 17,000 (5.5%) of roughly 310,000 compounds were called active. Inconclusive results, whose numbers are uncertain, are shown with a selection of clear calls. Calls come from the whole dose curve; as a rule, active = well fitted inhibition curve with a large enough effect; inconclusive = small, poorly fitted or top-dose-only effect, or effect the other way; inactive = no such curve, though single readings can be large or run the other way. A potency beside an inconclusive call is a rough fit, not a confirmed value.
# Molecular target: Nuclear receptor ROR-gamma (Mus musculus) (UniProt P51450)
# Assay: qHTS for inhibitors of ROR gamma transcriptional activity; note: nearly all actives have a fitted effect of over 60% in size
# Settings: Drosophila S2 Gal4-RORgamma UAS-luciferase reporter, 20 h; series mostly up to 53.6 µM
# Outline: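 ROR gamma transcriptional activity was tracked as Gal4-UAS luciferase output in stably transfected Drosophila Schneider cells, with compound added 1 hr before 700 uM copper sulfate induction and a 20 hr ambient-temperature incubation.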
# Potency is the fitted concentration of half-maximal effect.
row,Structure (SMILES),Potency
1,COc1cccc(C(=O)O/N=C/c2ccc(Sc3ccc(C)cc3)nc2)c1,inactive
2,CCC(=O)Nc1cnc(NC(=O)c2cccc(F)c2)cc1C,"inconclusive: 12.6 µM [inhibitor, single point]"
3,COc1ccc(OC)c(CC(NC(C)=O)C(=O)NC2CCN(C(=O)c3cccc(C)c3)CC2)c1 (centres undefined),"inconclusive: 14.1 µM [inhibitor, single point]"
4,C(=C\c1ccccc1)/CN1CCN(c2ncnc3c2oc2ccccc23)CC1,"inconclusive: 3.16 µM [inhibitor, single point]"
5,COc1ccc(NC(=O)c2cc3c(s2)CCC3)cc1S(=O)(=O)N1CCOCC1,"inconclusive: 10 µM [inhibitor, partial curve]"
6,COc1cc(C(O)c2nc3ccccc3n2C(C)C)cc(OC)c1OC (centres undefined),"inconclusive: 35.5 µM [activator, single point]"
7,CCNc1nc(Oc2ccc(C(=O)OC)cc2)nc(N(C)C)n1,"inconclusive: 12.6 µM [activator, single point]"
8,Cc1scc(C(=O)NNC(=S)NCc2ccccc2)c1C,active: 2 µM
9,O=C(O)c1ccc(Nc2ccc([N+](=O)[O-])c3nonc23)cc1,inactive
10,Cc1cc(C)nc(Nc2n[nH]c(-c3ccccc3Cl)n2)n1,"inconclusive: 10 µM [activator, partial curve]"
11,NC(=S)NNC(=O)c1cc(C(F)(F)F)cc(C(F)(F)F)c1,"inconclusive: 22.4 µM [inhibitor, single point]"
12,Cc1cc2c3c([nH]c2cc1S(=O)(=O)N1CCC2(CC1)OCCO2)CC(C)(C)CC3=O,"inconclusive: 12.6 µM [activator, single point]"
13,Cc1cc(C)c(C)c(S(=O)(=O)N2CCN(CC(=O)c3c(N)n(Cc4ccccc4)c(=O)n(C)c3=O)CC2)c1C,inactive
14,Cc1ccc(NC(=O)c2sccc2C)cc1[N+](=O)[O-],"inconclusive: 1.26 µM [activator, partial curve]"
15,O=C(NNC(=O)c1ccccc1[N+](=O)[O-])c1ccc(NC(=O)c2ccccc2)cc1,inactive
16,CN(C)c1ccc(N2C(=O)CC(Sc3ccccc3C(=O)O)C2=O)cc1 (centres undefined),"inconclusive: 17.8 µM [inhibitor, single point]"
17,NS(=O)(=O)c1ccc(CCNC(=O)NC2(C(F)(F)F)Oc3ccccc3O2)cc1,active: 11.2 µM
18,COc1cc(CC(=O)N(c2ccccc2)c2nc(C)cs2)cc(OC)c1OC,inactive
19,Cc1cccc(NC(=S)NNc2ncc(C(F)(F)F)cc2Cl)c1,active: 15.8 µM
20,Cc1cc(C)c(NC(=O)C(C)Sc2nnc(-c3ccco3)n2-c2ccccc2)c(C)c1 (centres undefined),"inconclusive: 3.98 µM [activator, partial curve, poor fit]"
21,CCc1cc2cc3c(cc2nc1SCC(=O)N1CCN(C(=O)c2ccco2)CC1)OCO3,inactive
22,Cc1ccc(C(C)C)c(OCC(=O)Nc2ccccc2N2CCN(C)CC2)c1,"inconclusive: 22.4 µM [inhibitor, single point]"

row,Structure (SMILES),Potency
1,Cc1cc(C(=O)N/N=C/C=C/c2ccccc2)c(C)o1,active: 7.94 µM
2,CCOC(=O)C1CCN(C2CC(=O)N(c3ccc(OCC)cc3)C2=O)CC1 (centres undefined),"inconclusive: 25.1 µM [inhibitor, single point]"
3,CCc1nc2ccccc2n1CC(=O)N1CCN(S(=O)(=O)c2cccc(C(F)(F)F)c2)CC1,"inconclusive: 22.4 µM [activator, single point]"
4,CCOc1ccc(NC(=O)CN2CCc3ccccc3C2)cc1,"inconclusive: 5.62 µM [inhibitor, single point]"
5,O=c1oc2ccccc2nc1/C=C(O)/C=C/c1ccc(F)cc1,"inconclusive: 11.2 µM [inhibitor, single point]"
6,CCCNC(=O)COc1ccc2c(=O)c(Oc3ccccc3F)coc2c1,"inconclusive: 7.08 µM [activator, partial curve]"
7,Cc1ccc(S(=O)(=O)N2CCCCC2C(=O)NCc2ccco2)cc1 (centres undefined),"inconclusive: 35.5 µM [activator, single point]"
8,COc1cccc(C(=O)NCCN2C(=O)S/C(=C/c3cccs3)C2=O)c1OC,"inconclusive: 5.62 µM [activator, single point]"
9,O=C(c1ccc(S(=O)(=O)c2cccc(Cl)c2)c([N+](=O)[O-])c1)N1CCN(Cc2ccccc2)CC1,"inconclusive: 14.1 µM [inhibitor, single point]"
10,CCc1ccc(-c2csc(NC(=O)Oc3ccccc3)n2)cc1,"inconclusive: 20 µM [activator, partial curve, poor fit]"
11,O=C(CSc1ncn[nH]1)Nc1ccc(S(=O)(=O)N2CCCC2)cc1,"inconclusive: 11.2 µM [inhibitor, single point]"
12,COc1c2c(c(C(=O)/C=C/C(C)=C/c3ccccc3)c3c1OCO3)CCN(C)C2,inactive
13,CCOc1ccccc1C1C(C#N)=C(N)Oc2cc(N)ccc21 (centres undefined),inactive
14,O=c1cc(-c2ccc(Cl)cc2)oc(=O)[nH]1,inactive
15,CCN(C(=O)CN1C(=O)COc2ccc(S(=O)(=O)N3CCCCCC3)cc21)c1cccc(C)c1,"inconclusive: 1.58 µM [inhibitor, full curve, poor fit]"
16,CCC1C/C(=C/c2ccco2)C(=O)/C(=C/c2ccco2)C1 (centres undefined),"inconclusive: 22.4 µM [inhibitor, single point]"
17,COc1cccc(Cn2nnc(C(=O)Nc3ccc(C)cc3)c2N)c1,inactive
18,c1ccc(CNc2ncnc3scc(-c4cccs4)c23)nc1,"inconclusive: 35.5 µM [inhibitor, single point]"
19,O=C(CSc1nnc(-c2ccc(O)cc2)n1Cc1ccco1)N1CCc2ccccc2C1,"inconclusive: 35.5 µM [activator, single point]"
20,CCN(Cc1cc(=O)n2cc(Cl)c(C)c(Cl)c2n1)Cc1nc2ccccc2c(=O)[nH]1,active: 12.6 µM
21,CCOc1cc(C)c(C(C)C)cc1S(=O)(=O)NCc1ccccn1,active: 10 µM
22,COc1cccc(C(=O)NC(C)C(c2cccs2)N2CCN(C)CC2)c1 (centres undefined),"inconclusive: 6.31 µM [activator, single point]"

# Look-ups from above:
# In Potency, CCN(C(=O)CN1C(=O)COc2ccc(S(=O)(=O)N3CCCCCC3)cc21)c1cccc(C)c1 has inconclusive: 1.58 µM [inhibitor, full curve, poor fit]
# In Potency, COc1cc(CC(=O)N(c2ccccc2)c2nc(C)cs2)cc(OC)c1OC has inactive
# In Potency, CCNc1nc(Oc2ccc(C(=O)OC)cc2)nc(N(C)C)n1 has inconclusive: 12.6 µM [activator, single point]
